The source of these data is PubChem BioAssay AID1347426 (Functional Genomics Laboratory (NCATS/FGL), 2020).

In all, about 31,000 sequences went through this assay and about 1,400 (4.5%) were called active.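 Rule for the calls: active = median seed-adjusted z-score above 1 or below -1; inactive = the rest.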 Some of the results follow.

The nature of the test: Novel Modifiers of Survival Motor Neuron (SMN) Protein: Gene Identification via Genome-wide siRNA Screen.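 Note: luminescence tracks full-length SMN protein made from the SMN2 reporter.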 The conditions noted are these: HEK293T SMN2-luciferase reporter, siRNA knockdown, 72 h; actives lie on both sides. In short, it runs like this:
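Each of three siRNAs per gene is reverse-transfected (1 pmol) into reporter HEK293T cells whose luciferase output tracks SMN protein level. After 72 h culture, ONE-Glo luminescence is control-normalized, log10-transformed and MAD-standardized; Common Seed Analysis deprioritizes seed-driven hits.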
For GAGAGCAUCGUUAAAGAUATT against TRAF3, the median seed-adjusted z-score was inactive: 0.731.
The same measure for CCUCCGUUAUGAUCGGCUATT against B4GALNT1: inactive: 0.0265; for CACGGAUGAUGAACGAGAATT against GRHL2: inactive: 0.0233.
For GAUACGUUCUGCAAUGUUATT against EPYC the value was inactive: 0.00264; for CGAGUGGACCUACGAGGAATT against ARID3C, active: -1.32.
GCCUAGGUAUGGGAAAAGATT against PPY: the median seed-adjusted z-score is inactive: -0.0804.
For the sequence AGCUUCUACGAGCUCAAAATT against TFE3, the median seed-adjusted z-score was inactive: -0.0442.
For ACCACUCAGAUAUCCCAAATT against ST6GAL1, the median seed-adjusted z-score was inactive: -0.14.
The same measure for GGCUAUCAUCUACACCCGATT against UGCG: inactive: 0.492; for ACCCAACUCUUACUCUUAATT against RNF7: active: -1.18.
For CCAGCAUAGCAUAAUCCAATT against ZNF233 the value was inactive: 0.59; for CCAUUUCCAGAGGCCCAGATT against SLC22A12, inactive: -0.148.
For AGACAUCAGAAUUUACUGATT against CHGA the value was inactive: -0.0235; for GGCUGUUCCUGAGACUGCATT against DMAP1, inactive: 0.342; for GGAGCUUCUUAACAGCGAUTT against CIITA, inactive: -0.109.
Regarding GGUCCAGCAUAGUUUAUCATT against RRAGB, the median seed-adjusted z-score was inactive: 0.
For CGGCUGAGCAGAUCUCAGATT against SCO2 the value was inactive: 0.848; for GCUGUGGAUUGUCCAACAATT against NPY5R, inactive: 0.213; for AGAAGAAGAUCGUCCAGGATT against FGD2, inactive: 0.0293.
Consider CACACCAGAUUGUAGAAAATT against SLC24A5, for which the median seed-adjusted z-score was inactive: -0.166.
The same measure for GAGUUUGCACAGUCAGUAATT against TBC1D23: inactive: 0.0932.
Regarding ACGACUGCCUGGUCUUAAATT against ADAP2, the median seed-adjusted z-score was active: -1.1.
For CGUGAACACUAUGAGCGGATT against MAP3K13 the value was inactive: -0.121; for GCUUCAAUCUUUCUCGUAUTT against C10orf2, inactive: 0.31; for GGAGAUACCUCAGUGCACATT against CPT2, inactive: 0.542.
Regarding CUAGUUUAAUAAAGAUUCATT against APOE, the median seed-adjusted z-score is inactive: 0.0321.
On to CCAUCGUCCAUGAGAUCGATT against KCNJ14, for which the median seed-adjusted z-score is inactive: -0.526.
The same measure for CAAUCUUGGAUGCACUAAATT against MALT1: inactive: 0.442.
For GCUUCGCCCUUGCUUGUAATT against RFC2 the value was inactive: 0.00126; for GCAGAGCAAUGGGAGAGAATT against EPHB4, inactive: -0.143.
For CCCAAUUUAUUGAAAGUGATT against SLC2A4RG the value was inactive: -0.0232.
Turning to GGCUGAAAUUGUAACCCUATT against TPD52L3, the median seed-adjusted z-score is inactive: 0.552.
For CUACUACGAUGCCUACCAATT against CLDN2 the value was inactive: 0.865; for CCAUGAAGCUUUGAGUGAATT against EEF1A1, inactive: -0.755; for CAGCAGAUUGUGAAUCUGATT against MLLT1, inactive: -0.086.
For UGUGAACCGCGCCUACUUUTT against PPM1F the value was inactive: -0.231; for CAUCUAUGGUUUCUACGAUTT against PPP1CA, inactive: 0.115; for GCAUAGUCCAGUUUUAUUATT against MTA2, inactive: 0.947.
For “CCUUACCACUACUUUGAGATT against ST6GALNAC4” the value was inactive: -0.39; for GGUAGUCUAUCACUUCGAATT against TRIM37, inactive: -0.108; for CCUUCGCUAUGAUGGAGCATT against HPN, inactive: -0.0237.
With CAGUUUCUCAUGAUCGAGATT against RASSF9, the median seed-adjusted z-score was inactive: 0.314.
The same measure for AAAAUGGAAUUCUAAGUUATT against DMRTA2: inactive: 0.252; for GGAAAACUGCGGCUGCAAATT against AP1S1: active: -1.04; for GAUCGUUCAUAAUGGAGAATT against ZFP14: inactive: 0.263.
For GAAUUGUAGUGGAUGAAAATT against CHFR the value was inactive: -0.673; for GCCUCCUACUCAGCGUAUATT against PCDHGA8, inactive: 0.00691; for GGCACCAAUUGGAUAUUCUTT against SLC5A7, inactive: 0.624.
GGCUCAAGGAGAUCGUUUATT against ARNT: the median seed-adjusted z-score is inactive: -0.244.
For GCUUCAUGAUUGUCUACAATT against ELOVL1 the value was inactive: 0.564; for CCAAGAGUGAUGCAGAGGATT against CABP4, inactive: 0.146; for CAAUCUCCGGAGGCACGAATT against MAZ, inactive: 0.316.
For GAAUAACUGCUGCUUGUAATT against TTRAP, the median seed-adjusted z-score was inactive: -0.33.
For GGAAGAGACUUUGUCCACATT against BIRC7 the value was active: -1.44.
For CUACUGGACUGAUCAAGCUTT against CTCFL the value was inactive: -0.362; for GAUACACUUUGUCACCAAATT against FLT3LG, inactive: -0.166.
The same measure for GGGUGGAUCUAUGACAUCATT against SLC16A14: inactive: 0.464; for GGAUGUUAUUUACGCUCGATT against PTPN13: inactive: 0.0682.
Turning to GGUUUACUCUUAUCUGACUTT against RARS2, the median seed-adjusted z-score was inactive: -0.0247.
The same measure for CGAGAAAUCCCACAAGCGATT against NOVA2: inactive: 0; for GGAUGUGGACAACAAAGUATT against SARS: inactive: 0.377; for AUUCAUCUCAUAAACAAAATT against BATF2: inactive: 0.714.
For UAAUCUACGUGGUCUGAGATT against ZCCHC3 the value was inactive: -0.849.
For GAUCUGAUGUUAGUACAUATT against B3GNT2 the value was inactive: -0.0427; for CCUUUAUGGUGGUGAAUGATT against HSPA8, inactive: 0.462.
Take CUCGGAAGAUGGUACGAAATT against APOD: the median seed-adjusted z-score was inactive: -0.115.
The same measure for GGCCGGUGUUUGACGACAATT against STK32C: inactive: -0.311; for AAUGAGUACUGGAGAUUGATT against S100A13: inactive: 0.153.
The same measure for CCAAUAACCAGGAUUUUAATT against PPM1A: inactive: 0.0153.
For GGAUAAUUGCUGCAAGAGATT against TRAF3 the value was inactive: 0.731.
As for GCAAGGAUAUUAUACAGCATT against GALNT3, the median seed-adjusted z-score was inactive: -0.0426.
For GACCAACAUUGAUAGCUCATT against ITGA7, the median seed-adjusted z-score was inactive: 0.13.
Regarding GAUUUUCACUUGCAACUCATT against PDP2, the median seed-adjusted z-score was inactive: -0.0726.
Regarding GGUAGCUUCUGAUAAUGAUTT against LEO1, the median seed-adjusted z-score is active: 1.2.
In the case of GCAAUGGUGUGACGCAGAATT against NANOG, the median seed-adjusted z-score was inactive: -0.106.
For AGAGGAUUAUGACAUGGAATT against SERPINB9 the value was inactive: 0.
For GAAUUACCUUUCUGAAAUATT against SLC23A1 the value was inactive: 0.904.
As for GGCUCAUAAUGGAGCAGGUTT against TIMM13, the median seed-adjusted z-score was inactive: -0.422.
In the case of GAACCACUAUGAUCAUUGATT against DPYSL2, the median seed-adjusted z-score is inactive: -0.569.
The same measure for GGUUAUUGUCGGUAUCGGATT against ADAM7: inactive: -0.0638.
The same measure for GGAUGAUGUGCGUAACAGATT against HAO1: inactive: 0.421; for CAUUGACCACUACAAGUAATT against ITFG1: inactive: -0.417; for CCAAAGAGCGGGACCUGUATT against MAFA: inactive: 0.424.
For GCUUCACACUCGGUAGACATT against ZNF749 the value was inactive: 0.911; for CAACCUCAACCAACCGGAATT against FAT2, inactive: -0.286.
In the case of AGACAGUGCAUGGUCCUGATT against GLI1, the median seed-adjusted z-score was inactive: -0.347.
With CAAAAAUGAUUGCGAAUGATT against APOL4, the median seed-adjusted z-score was inactive: -0.54.
The same measure for GCGUGGAAGUGAUUCGUCUTT against ATP8B1: inactive: 0.357.
Consider GCUCGUGCCUUAGACAAGATT against QPCT, for which the median seed-adjusted z-score is inactive: 0.933.
For CGCAUAUGCCUCAAUCAAATT against REEP6 the value was inactive: -0.348; for GCACGAAUGGAAUAGAUAATT against WWP1, inactive: -0.442; for GUGCCGGAACUGAUCAGAATT against BAX, inactive: -0.478.
The same measure for CCUGGUUCAUUUUCGCCUUTT against SLC13A3: inactive: 0.0434.
The same measure for CAACCAAACGGGAGCUUGATT against USP22: inactive: 0; for GGAACAAUUCUCCAACCUATT against T: inactive: -0.018; for GAUUUGCUGUUCUAUACAATT against GLS: inactive: 0.
In the case of CAGCUCUUCGAAUAACCAATT against ME1, the median seed-adjusted z-score was inactive: -0.258.
The same measure for GCGAGUAGAUAAUAUCGAATT against MAP3K5: inactive: -0.285; for CAGCGAUGCUACGACAAUATT against PHF17: active: 1.01.
For the sequence GCUGCUACAAGUUCAUCCATT against PSEN2, the median seed-adjusted z-score is inactive: -0.147.
The same measure for CGAUCGCAAGUACCACGAATT against ATP8B1: inactive: 0.357; for GGGCUGUGAUUAUUCCGAATT against XCR1: inactive: -0.292.
Take GAGUCAGGAUCGCAAGUCATT against SAFB2: the median seed-adjusted z-score was inactive: 0.0394.
For CAGAGUGACUUAGGAAUUATT against KIF25 the value was inactive: -0.0031; for GGAAUGAAGGUCAUCGAAATT against TPM2, inactive: 0.305; for CCGGGAAAGUAGAAUUACATT against IGF2BP1, inactive: -0.993.
For GCUGUUAGAUAAGCCCAAUTT against B3GAT3 the value was inactive: -0.00603.
